The other results are listed elsewhere or left out.
Biological target: OsWRKY34 (Oryza sativa, UniProt Q0JBA9 1-250)
Test: protein-binding microarray (RPBM); PBS, 2% BSA, 51.3 ng/ul salmon testes DNA, 50 uM zinc acetate, 200 nM TF, 25 C, 1 h; high values mean tight binding
Conditions: protein: recombinant; tags: N-terminal polyhistidine and DsRed monomer fusion (pET32a); label: CyDye5-dUTP incorporated in the synthesized complementary strand; 3' TTTTT single-stranded linker to array surface; dsDNA, one strand shown
How it was run: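 For the binding signal, per-feature fluorescence intensity was read in arbitrary units on an Axon 4000B scanner. Before scanning, a 2% BSA-blocked custom Agilent array made double-stranded with Cy5-dUTP was washed after 1 h at 25 °C with 200 nM protein and 50 µM zinc acetate. The proteins were Ni–NTA-purified transcription factors with N-terminal polyhistidine and DsRed fusions, expressed in E. coli BL21-CodonPlus.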

By UniProt entry, the sequences of proteins in these tests, tags left out.
UniProt Q0JBA9, entry or part of it: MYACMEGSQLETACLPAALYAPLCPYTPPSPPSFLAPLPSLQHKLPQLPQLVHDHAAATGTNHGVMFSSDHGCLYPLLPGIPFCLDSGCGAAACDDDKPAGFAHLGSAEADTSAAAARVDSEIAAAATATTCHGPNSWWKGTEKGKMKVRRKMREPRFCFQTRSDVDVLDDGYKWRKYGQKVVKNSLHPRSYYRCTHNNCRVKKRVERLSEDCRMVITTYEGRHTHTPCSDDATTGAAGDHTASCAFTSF

Row | Sequence | binding signal
1 | CGTCAATCCAGTGATCCGTCTCTTTCCTGCGTACTATATCCGGAGTCACCTAGTGCAG | 10400 fluorescence intensity (a.u.)
2 | AGTTTGCATATATATACGCTGTCTTTTTGCTGGACAACAACGGAGTCACCTAGTGCAG | 8940 fluorescence intensity (a.u.)
3 | TCACGCATCGGCGCCGCCCTCCGGCCAGCAGCGACTCGCCCGGAGTCACCTAGTGCAG | 44600 fluorescence intensity (a.u.)
4 | CCGATCCATTCCCAATCCCATCCCATCCCATCGATCGATCCGGAGTCACCTAGTGCAG | 9460 fluorescence intensity (a.u.)
5 | CTTGCTAATATCCTCACTCATGATACACGTGTAGCCCCTACGGAGTCACCTAGTGCAG | 9790 fluorescence intensity (a.u.)
6 | ACGACGCATCACCCATCTCATTCTCATCATCGTCGCGTGACGGAGTCACCTAGTGCAG | 10700 fluorescence intensity (a.u.)
7 | GACGTTCATTTTTATTCAACGGTTGTTTTTAGATTTTTCACGGAGTCACCTAGTGCAG | 13500 fluorescence intensity (a.u.)
8 | ACGGTTGGACTTTCTCGATTAATCGCGTATCTGTGCACGTCGGAGTCACCTAGTGCAG | 9640 fluorescence intensity (a.u.)
9 | TTCTCTCGTCGTTGTTGTTGTCGTTGTTGTTGCACTCGCGCGGAGTCACCTAGTGCAG | 11200 fluorescence intensity (a.u.)
10 | CTGCTCCTCACGCCTGTACGTTCCGCTCCTTCACATCAGCCGGAGTCACCTAGTGCAG | 12500 fluorescence intensity (a.u.)
11 | ATGCGTTATGAATTCTGATTATCTTTTTCTCTTTTTTTTGCGGAGTCACCTAGTGCAG | 11200 fluorescence intensity (a.u.)
12 | GCTGGATTTTTATGGGAGGGCACACAAGGATTCTCTCCCGCGGAGTCACCTAGTGCAG | 11200 fluorescence intensity (a.u.)
13 | TCTTCCGCTCGATCCCCGTCGCGGCGCCGCCTCGTCTCGCCGGAGTCACCTAGTGCAG | 8430 fluorescence intensity (a.u.)
14 | AAACAATACAATGCACCTGCCGTACTATAATTTTGTCATTCGGAGTCACCTAGTGCAG | 9830 fluorescence intensity (a.u.)
15 | CCTCAATTTCCAGTGCCTGTAGTACTCTTCACTGTCTCCACGGAGTCACCTAGTGCAG | 8800 fluorescence intensity (a.u.)
16 | CGCACTGCCACCTACCCATCCGTCGTCGACGCAGATGATCCGGAGTCACCTAGTGCAG | 8750 fluorescence intensity (a.u.)
17 | TTTGTCAATTGATGTATACATATGTGCTTTGTGTTCCTACCGGAGTCACCTAGTGCAG | 11100 fluorescence intensity (a.u.)
18 | TACTGCAACATTGCAACCTGTTCCATCTTTTGGTTTATTACGGAGTCACCTAGTGCAG | 9150 fluorescence intensity (a.u.)
19 | ACTTATTCCTTGCAACTTTGCAAGCCATTGGGTCGGGCCACGGAGTCACCTAGTGCAG | 9780 fluorescence intensity (a.u.)
20 | TGGTGTTGTCGGTGTGTGGGTGGTGATATACTTTTTTTTTCGGAGTCACCTAGTGCAG | 11600 fluorescence intensity (a.u.)
21 | GAGAAAAGTATCCCTGTTTGGCAACCGTATCTTCCTCATTCGGAGTCACCTAGTGCAG | 8460 fluorescence intensity (a.u.)
22 | TCATCCTCGCCTGCAGCTTCACCACGCCGACGCCGTCGCTCGGAGTCACCTAGTGCAG | 9850 fluorescence intensity (a.u.)
23 | TACTCTTGTTGGTTTCTTCTCCAGTCCAAGTGTCCGCGCTCGGAGTCACCTAGTGCAG | 10300 fluorescence intensity (a.u.)
24 | GACTGAAGCTCGCAATACCATAAGTCGTTTTTGCTCACGACGGAGTCACCTAGTGCAG | 8650 fluorescence intensity (a.u.)
25 | TGGACTTTCTTATTATCCGTTTCCTAGTGCATCTATTAGTCGGAGTCACCTAGTGCAG | 8120 fluorescence intensity (a.u.)
26 | CTAACCACCTCCAAGCTTCTCTCTCTCGCTCACAATCTCTCGGAGTCACCTAGTGCAG | 9560 fluorescence intensity (a.u.)
27 | CAACCAGCTCATAGATATCTTGCACGTAATCTTCCTAATTCGGAGTCACCTAGTGCAG | 8690 fluorescence intensity (a.u.)

Row | Sequence | binding signal
28 | ATACACTCTCTCGATCGCTTAATACTCCGTAGCTTTCAATCGGAGTCACCTAGTGCAG | 8670 fluorescence intensity (a.u.)
29 | TGGGGTTCTTTCATTCAGTCAGTTTGATGTTCTCTTCCTACGGAGTCACCTAGTGCAG | 9880 fluorescence intensity (a.u.)
30 | AAACGCTATCCGCTAACCCCTCGCGCCGTCGCGCTTCCTGCGGAGTCACCTAGTGCAG | 8710 fluorescence intensity (a.u.)
31 | AATTTGACAAGCATCCATAATAAGATTCAGATAACTTCCTCGGAGTCACCTAGTGCAG | 14300 fluorescence intensity (a.u.)
32 | CTCCCTCTATCAAAAAAATGTTTGACGCCGTTGACTTTTTCGGAGTCACCTAGTGCAG | 25600 fluorescence intensity (a.u.)
33 | AGTTGTGGGCATGAATCGGATCGTGTAGGATGGGGATAGGCGGAGTCACCTAGTGCAG | 11400 fluorescence intensity (a.u.)
34 | GCTCTCCGCCTCTCCTGACTCCGGTGAGCAATTCCAAACCCGGAGTCACCTAGTGCAG | 9120 fluorescence intensity (a.u.)
35 | CGCCGGTTGCTTCCATATACTCTGCTCCTTTTTTTTCTATCGGAGTCACCTAGTGCAG | 9240 fluorescence intensity (a.u.)
36 | ATGTATGATATTTCGTATACTTAAATTTACTTTTCATTTTCGGAGTCACCTAGTGCAG | 9040 fluorescence intensity (a.u.)
37 | TTTTCTTCTATGCGTTGTGACCTGTCCATCTATGTACTGTCGGAGTCACCTAGTGCAG | 11400 fluorescence intensity (a.u.)
38 | TCCGTTCAATAATCCAAATCAAACGTACCATTCGGCTTTCCGGAGTCACCTAGTGCAG | 8580 fluorescence intensity (a.u.)
39 | TCGTCTCTCTGTGTATGTTCATGGGTCCCACATAGCAATTCGGAGTCACCTAGTGCAG | 9520 fluorescence intensity (a.u.)
40 | CGGGGAGTTGACTCAGATATTAAGAGTTTTTTCTTTTTCACGGAGTCACCTAGTGCAG | 8540 fluorescence intensity (a.u.)
41 | ACGCTCTATCTGTTTACTCTCTCCCGTTTCATTTTAATTACGGAGTCACCTAGTGCAG | 13500 fluorescence intensity (a.u.)
42 | CTATATATACCTCTCCCTTGTACTTGTCCAGTTCTTACACCGGAGTCACCTAGTGCAG | 9540 fluorescence intensity (a.u.)
43 | TTTTTGTCAGAATTCTATGTTTTTTCTATTCCTCCGTTTTCGGAGTCACCTAGTGCAG | 9460 fluorescence intensity (a.u.)
44 | TATGGTCCTCTAGTTTTTCATCTACTCCACATGTGGCTCTCGGAGTCACCTAGTGCAG | 9270 fluorescence intensity (a.u.)
45 | ATACACATACGCTCGCTGCTTGGCTGGACGTCCGATATTTCGGAGTCACCTAGTGCAG | 9780 fluorescence intensity (a.u.)
46 | AAAGTTTGACTTTTAAGAACAATTTAAGTGTACCTTTTAACGGAGTCACCTAGTGCAG | 11100 fluorescence intensity (a.u.)
47 | TTGTCTCGCAACACAATCTCACTGCAGCAAACAATATCTTCGGAGTCACCTAGTGCAG | 8680 fluorescence intensity (a.u.)
48 | GGTTGGATATTTGCTTGTAATTCTATATGTTTTTTTTCTGCGGAGTCACCTAGTGCAG | 10400 fluorescence intensity (a.u.)
49 | TCTGCGCGACCCGCTACCACCCACACATCTTCCCGTCTCACGGAGTCACCTAGTGCAG | 8320 fluorescence intensity (a.u.)
50 | AATATTCACAACCGTACCCCTCGATCTACCCACCGCCGCCCGGAGTCACCTAGTGCAG | 9810 fluorescence intensity (a.u.)
51 | TCCTTCTCTGACTCTGTCTTGGCCATCCTATTCCTAGCTCCGGAGTCACCTAGTGCAG | 10600 fluorescence intensity (a.u.)
52 | GAGCTGGACCCATGCATTTTGTTGCACCTTGAAAGTTTTACGGAGTCACCTAGTGCAG | 9680 fluorescence intensity (a.u.)
53 | TAGCTCGGATTCTGCCCCTAATCCCGCCGTCCGCCTCCGCCGGAGTCACCTAGTGCAG | 8490 fluorescence intensity (a.u.)
54 | AATGTTCTATAGTCGACCTGTAACTCGTTTTTTAGGAAAACGGAGTCACCTAGTGCAG | 8330 fluorescence intensity (a.u.)

Random excerpt: 5 entries already listed, in no set order.
Row | Sequence | binding signal
6 | ACGACGCATCACCCATCTCATTCTCATCATCGTCGCGTGACGGAGTCACCTAGTGCAG | 10700 fluorescence intensity (a.u.)
49 | TCTGCGCGACCCGCTACCACCCACACATCTTCCCGTCTCACGGAGTCACCTAGTGCAG | 8320 fluorescence intensity (a.u.)
15 | CCTCAATTTCCAGTGCCTGTAGTACTCTTCACTGTCTCCACGGAGTCACCTAGTGCAG | 8800 fluorescence intensity (a.u.)
24 | GACTGAAGCTCGCAATACCATAAGTCGTTTTTGCTCACGACGGAGTCACCTAGTGCAG | 8650 fluorescence intensity (a.u.)
21 | GAGAAAAGTATCCCTGTTTGGCAACCGTATCTTCCTCATTCGGAGTCACCTAGTGCAG | 8460 fluorescence intensity (a.u.)
